Data on 1 substance can be found in publication PMC5703645.

Amino acid sequences for entries named in this document (tags omitted). A change or cut given only in a name is not applied to a line headed by its entry.
UniProt P0DPQ6: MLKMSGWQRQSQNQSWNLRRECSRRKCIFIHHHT

Results are given in words; binding and its absence hold for the method and conditions named. Binding seen in cells or lysates may run through a third protein. Binding calls can cover weak binding; strength is not graded here.

In this assay the target is altDDIT3^GFP (human) (UniProt P0DPQ6). The experiment in a line: co-IP; GFP-Trap agarose beads on lysates of HeLa cells co-expressing both constructs; lysis 0.5% NP40, Tris-HCl 50 mM pH 7.5, NaCl 150 mM; overnight; washes with NaCl 200 mM; western blot of GFP and mCherry. (Immunoblotting shows a protein as a band on a membrane.)

As for “DDIT3^mCherry (from UniProt P35638-1 1-169)”, the binding result is reported as “binds”.
